# Screening data

Data taken from PubChem BioAssay AID1159506, deposited by NCATS (2015).

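Genome-wide siRNA knockdown in TC32 Ewing sarcoma cells, comparing luciferase light from an NR0B1-promoter reporter with a CMV-promoter reporter 48 hours after transfection. Each siRNA was applied at 20 nM. A z-score of the log NR0B1-over-CMV signal, less the median of siRNAs with the same seed; more negative means a stronger specific loss of the NR0B1 reporter.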

This is part of the screen; most of the strongest results are not listed here. Sequences are the guide (antisense) strand, without overhang.

Result for UGACUGUAACCGUUGUUCC against SNX27 was seed-corrected z-score -1.116. For UUGCUAUAGAUUUAUCUGG against RCOR1 the result was seed-corrected z-score -0.4104. With AAUCAGACAUUGAAUGCGC against RAB11FIP2 the assay gave seed-corrected z-score 0.7075. UGAAUGACCCGGGAAGCUG against FAM86B1 read seed-corrected z-score 0.1689. AAGAGGUUCAUAGAUGGGC against ACRV1 gave seed-corrected z-score 0.5612. With AUCUGUAAUGUCGAUAUUC against PPEF2 the assay gave seed-corrected z-score -0.2989. UCUGGAGACAUUCUGCUCG against AKAP17A gave seed-corrected z-score 0.06889.

Result for ACAGAGGUCAGACAAAUGG against JCHAIN was seed-corrected z-score 0.09091. Result for AAACUUUUAAUGACAACUG against HS3ST3A1 was seed-corrected z-score 0.2362. Result for UCUCCAUAUAGAGCGAGGC against C8orf33 was seed-corrected z-score 0.8708. With UGCGAAUUUUCAGAAGUCC against EP400 the assay gave seed-corrected z-score -1.702. AUUUUGACUACAGACCUUG against ZNF677 gave seed-corrected z-score 1.542. For AAUGGUAGCAUUAACAAUG against DUSP14 the result was seed-corrected z-score -0.8714. AUACUGCUUAAUCCAGUCG against ATP6V1C1 read seed-corrected z-score -0.5755.

With UAUCUCUCCUUACUUGUCG against FAM105A the assay gave seed-corrected z-score 0.825. Result for AACGGUCUCACUAAAUCUG against SON was seed-corrected z-score 1.423. AAAGUUGUCAUUGUCGUCC against FOXRED2 read seed-corrected z-score -0.9074. Result for UUCGUUUCAUGCGUUCUUC against KCNH1 was seed-corrected z-score 0.8119. Result for UUUGUUUACAGCAGGAGCA against IL34 was seed-corrected z-score 1.019. UUGGUAGUAACCUCCUUCG against TECTB read seed-corrected z-score 0.4754. With AUCUUUGAUCGUGAAGUGG against GAA the assay gave seed-corrected z-score 0.1885.

With UAUCUGUUGAUCUCGAUUC against ZNF280B the assay gave seed-corrected z-score -0.6528. With UAGAGUGCAUAGUUGAUCC against CRNKL1 the assay gave seed-corrected z-score 0.07658. UGUCCUUUGAGAGUCCACC against NKAIN3 read seed-corrected z-score -0.999. For UCCGGUAUAAUCAAUCUCG against TMEM30A the result was seed-corrected z-score -0.7343. Result for UCUGUAGAUGUGAGGAUCC against GVINP1 was seed-corrected z-score -0.4981. UUUAGGUUUCCUUUGCUGC against KLRC3 read seed-corrected z-score 1.037.